Measured values published in patent publication US20110144181A1, “Pharmaceutical Compositions of Amorphous Atorvasta and Process for Preparing Same” (Warner-Lambert Company LLC, priority 2004, published 2011).
Counter-ions that a name gives are not always drawn.

Experiment: Dissolution of milled extrudate in USP water (USP Type II apparatus)
Format: physicochemical
Conditions: 37° C.
Description: The samples were tested using a USP Type II dissolution apparatus (37° C., 50 RPM). Three samples, each containing approximately 20 mg of active ingredient, were dissolved in USP purified water. Samples were pulled at 15, 30, 45, and 60 minutes. An additional sample was pulled after the paddle speed was increased to 100 RPM for 20 minutes. The samples were filtered through a Millipore Millex GV filter (0.22 μm porosity) and analyzed via UV/Vis spectrophotometry (244 nm wavelength, 0.5 cm path length cell) using pure atorvastatin calcium as the standard.

Amount of Extrudate Dissolved in USP Water @ 15 min (50 RPM, approx. 20 mg active, n = 3, 15 min): 70.2 % (w/w)
Amount of Extrudate Dissolved in USP Water @ 30 min (50 RPM, approx. 20 mg active, n = 3, 30 min): 89.8 % (w/w)
Amount of Extrudate Dissolved in USP Water @ 45 min (50 RPM, approx. 20 mg active, n = 3, 45 min): 95.9 % (w/w)
Amount of Extrudate Dissolved in USP Water @ 60 min (50 RPM, approx. 20 mg active, n = 3, 60 min): 97.9 % (w/w)
Amount of Extrudate Dissolved in USP Water @ 70 min (n = 3, 70 min, pulled after paddle speed increased to 100 RPM): 99.9 % (w/w)
Compound: CC(C)c1c(C(=O)Nc2ccccc2)c(-c2ccccc2)c(-c2ccc(F)cc2)n1CC[C@@H](O)C[C@@H](O)CC(=O)O (relative stereo) [Bulk drug, [R-(R*,R*)]-2-(4-fluorophenyl)-β,δ-dihydroxy-5-(1-methylethyl)-3-phenyl-4-[(phenylamino)carbonyl]-1H-pyrrole-1-heptanoic acid calcium salt (2:1) trihydrate]
